Reference: article PMC5855135 (Chemical Science, 2017)
Results are given in words; binding and its absence hold for the method and conditions named. Some results given as binding are weak or reduced against the parent protein; the word gives no strength.

Biological target: T1, Staphylococcus aureus catabolite control protein A (CcpA), wild type (Staphylococcus aureus) (UniProt Q5HF38)
T1 sequence: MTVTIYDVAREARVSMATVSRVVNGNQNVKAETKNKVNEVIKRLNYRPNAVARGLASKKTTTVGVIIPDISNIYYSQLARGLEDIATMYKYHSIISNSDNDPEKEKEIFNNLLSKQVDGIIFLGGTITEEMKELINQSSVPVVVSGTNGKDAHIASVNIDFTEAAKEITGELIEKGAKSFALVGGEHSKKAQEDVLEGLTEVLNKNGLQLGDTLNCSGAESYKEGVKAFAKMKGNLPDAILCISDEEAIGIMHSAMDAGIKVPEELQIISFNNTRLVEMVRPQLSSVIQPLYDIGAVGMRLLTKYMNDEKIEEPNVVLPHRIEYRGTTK
Assay: native gel or EMSA; native PAGE of the DNA-CcpA-(Hpr-P) ternary complex, in vitro, without Ag+; both purified

binding: binds
B1: phosphorylated HPr (protein, UniProt P0A0E3 1-88)
chain: MEQNSYVIIDETGIHARPATMLVQTASKFDSDIQLEYNGKKVNLKSIMGVMSLGVGKDAEITIYADGSDESDAIQAISDVLSKEGLTK
modifications: phosphorylated (residue not stated)
